Drug screen on melanoma cell lines: cell count

Source: doi:10.1371/journal.pone.0140310, primary screening data, rounded.

Every entry is a combination with etoposide at 20 nM: COc1cc([C@@H]2c3cc4c(cc3[C@@H](O[C@@H]3O[C@@H]5CO[C@@H](C)O[C@H]5[C@H](O)[C@H]3O)[C@H]3COC(=O)[C@H]23)OCO4)cc(OC)c1O

Drugs:
PD173074, 100 nM: CCN(CC)CCCCNc1ncc2cc(-c3cc(OC)cc(OC)c3)c(NC(=O)NC(C)(C)C)nc2n1
cediranib, 400 nM: COc1cc2c(Oc3ccc4[nH]c(C)cc4c3F)ncnc2cc1OCCCN1CCCC1
tamatinib, 400 nM: COc1cc(Nc2ncc(F)c(Nc3ccc4c(n3)NC(=O)C(C)(C)O4)n2)cc(OC)c1OC
perifosine, 400 nM: CCCCCCCCCCCCCCCCCCOP(=O)([O-])OC1CC[N+](C)(C)CC1
vincristine, 0.1 nM: CC[C@]1(O)C[C@H]2CN(CCc3c([nH]c4ccccc34)[C@@](C(=O)OC)(c3cc4c(cc3OC)N(C=O)[C@H]3[C@@](O)(C(=O)OC)[C@H](OC(C)=O)[C@]5(CC)C=CCN6CC[C@]43[C@@H]65)C2)C1
BMS-536924, 200 nM: Cc1cc(N2CCOCC2)cc2[nH]c(-c3c(NC[C@@H](O)c4cccc(Cl)c4)cc[nH]c3=O)nc12
PF-04217903, 1000 nM: OCCn1cc(-c2cnc3nnn(Cc4ccc5ncccc5c4)c3n2)cn1
ZM336372, 2000 nM: Cc1ccc(NC(=O)c2cccc(N(C)C)c2)cc1NC(=O)c1ccc(O)cc1
L-779450, 200 nM: Oc1cc(-c2nc(-c3ccccc3)[nH]c2-c2ccncc2)ccc1Cl
lenalidomide, 1000 nM: Nc1cccc2c1CN(C1CCC(=O)NC1=O)C2=O (centres unmarked)
dovitinib, 100 nM: CN1CCN(c2ccc3nc(-c4c(N)c5c(F)cccc5[nH]c4=O)[nH]c3c2)CC1
YM155, 0.4 nM: COCC[n+]1c2c(n(Cc3cnccn3)c1C)C(=O)c1ccccc1C2=O
lapatinib, 800 nM: CS(=O)(=O)CCNCc1ccc(-c2ccc3ncnc(Nc4ccc(OCc5cccc(F)c5)c(Cl)c4)c3c2)o1
gemcitabine, 0.4 nM: Nc1ccn([C@@H]2O[C@H](CO)[C@@H](O)C2(F)F)c(=O)n1
KU-0063794, 20 nM: COc1ccc(-c2ccc3c(N4CCOCC4)nc(N4C[C@@H](C)O[C@@H](C)C4)nc3n2)cc1CO
KU-55933, 1000 nM: O=c1cc(-c2cccc3c2Sc2ccccc2S3)oc(N2CCOCC2)c1
OSU-03012, 1000 nM: NCC(=O)Nc1ccc(-n2nc(C(F)(F)F)cc2-c2ccc3c(ccc4ccccc43)c2)cc1
docetaxel, 0.1 nM: CC(=O)O[C@@]12CO[C@@H]1C[C@H](O)[C@@]1(C)C(=O)[C@H](O)C3=C(C)[C@@H](OC(=O)[C@H](O)[C@@H](NC(=O)OC(C)(C)C)c4ccccc4)C[C@@](O)([C@@H](OC(=O)c4ccccc4)[C@H]21)C3(C)C
PLX4720, 80 nM: CCCS(=O)(=O)Nc1ccc(F)c(C(=O)c2c[nH]c3ncc(Cl)cc23)c1F
sorafenib, 400 nM: CNC(=O)c1cc(Oc2ccc(NC(=O)Nc3ccc(Cl)c(C(F)(F)F)c3)cc2)ccn1
SNS-032, 10 nM: CC(C)(C)c1cnc(CSc2cnc(NC(=O)C3CCNCC3)s2)o1
nilotinib, 200 nM: Cc1cn(-c2cc(NC(=O)c3ccc(C)c(Nc4nccc(-c5cccnc5)n4)c3)cc(C(F)(F)F)c2)cn1

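Human melanoma cell lines in 1,536-well plates were treated with a pair of drugs for 72 h, then fixed, stained and imaged. The read-out is cell count (nuclei) in % of the DMSO control; lower values mean stronger growth inhibition or killing. Concentrations were fixed for each drug; these are the lower of two levels, a fifth of the higher. The file gives one value for each pair and line, without errors, so small differences may be noise.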
Only some of the drugs and lines screened are listed, without regard to their results.
An entry leaves out what has no value listed here.
A dash means that no value is listed here.

| Partner | A101D | 501mel | IST-MEL1 | MEL-HO | LB2518-MEL | COLO 792 | COLO 829 | LOX IMVI | A375 | G-361 |
|---|---|---|---|---|---|---|---|---|---|---|
| PLX4720 | 97.9 | - | 106 | 91.1 | - | 112 | 115 | 103 | 66.7 | 106 |
| YM155 | 86.6 | - | 103 | 93.4 | 106 | 103 | 102 | 115 | 82.4 | 98.5 |
| lapatinib | 91.0 | - | 108 | 113 | 93.5 | 80.6 | 95.9 | 98.1 | 80.7 | 94.4 |
| perifosine | 110 | - | 95.2 | 99.2 | 112 | 93.4 | 80.4 | 116 | 95.9 | 107 |
| cediranib | 105 | - | 103 | 59.9 | 90.2 | 89.0 | 111 | 146 | 87.8 | 106 |
| L-779450 | 86.3 | 77.8 | 95.8 | 82.3 | 103 | 101 | 106 | 95.3 | - | 98.3 |
| gemcitabine | 92.6 | - | 80.6 | 98.0 | 92.4 | 100 | 81.8 | 139 | 68.7 | 105 |
| tamatinib | 75.1 | - | 107 | 83.7 | 87.9 | 62.7 | 80.3 | 70.8 | 75.1 | 87.5 |
| PD173074 | 89.1 | 105 | 100 | 103 | 108 | 87.8 | 105 | 54.6 | - | 120 |
| PF-04217903 | 103 | - | 92.6 | 106 | 90.0 | 98.6 | 94.7 | 90.5 | 98.1 | 111 |
| sorafenib | 111 | - | 103 | 110 | 97.3 | 111 | 90.2 | 173 | 104 | 89.3 |
| OSU-03012 | 91.6 | - | 89.8 | 89.5 | 89.1 | 88.2 | 74.3 | 64.4 | 14.2 | 99.2 |
| ZM336372 | 89.5 | - | 94.9 | 83.4 | 75.9 | 116 | 98.1 | 92.6 | 92.4 | 104 |
| KU-55933 | 100 | - | 101 | 92.6 | - | 95.6 | 116 | 101 | - | 102 |
| docetaxel | 73.9 | - | 71.0 | 66.3 | 85.0 | 37.6 | 57.8 | 23.9 | 32.7 | 31.0 |
| BMS-536924 | 107 | - | 80.5 | 78.9 | 81.2 | 95.8 | 128 | 108 | 92.0 | 83.3 |
| dovitinib | 108 | - | 101 | 98.1 | 97.2 | 87.6 | 83.7 | 111 | 82.8 | 96.7 |
| KU-0063794 | 93.9 | 99.9 | 92.8 | 88.8 | 92.0 | 104 | 92.4 | 102 | - | 105 |
| SNS-032 | 107 | - | 95.3 | 107 | 90.5 | 90.3 | 97.9 | 66.0 | 91.4 | 104 |
| lenalidomide | 87.6 | - | 90.5 | 97.6 | 101 | 99.9 | 93.5 | 168 | 76.6 | 91.7 |
| nilotinib | 98.2 | - | 93.9 | 82.3 | - | 101 | 79.4 | 105 | 95.3 | 89.0 |
| vincristine | 85.7 | - | 90.7 | 103 | 92.5 | 104 | 68.2 | 113 | 85.6 | 78.7 |

Once more, the final 2:

- nilotinib : A101D: 98.2; IST-MEL1: 93.9; MEL-HO: 82.3; COLO 792: 101; COLO 829: 79.4; LOX IMVI: 105; A375: 95.3; G-361: 89.0
- vincristine : A101D: 85.7; IST-MEL1: 90.7; MEL-HO: 103; LB2518-MEL: 92.5; COLO 792: 104; COLO 829: 68.2; LOX IMVI: 113; A375: 85.6; G-361: 78.7